Experiments:
HCT-116 [1] = test: cells; conditions: Homo sapiens, HCT-116, 72 h
HCT-116 [2] = test: cells; conditions: Homo sapiens, HCT-116, 72 h; remark: listed apart in the source

**Q.** `Cc1ccc(NC(=O)c2ccc(CN3CCN(C)CC3)cc2)cc1Nc1nccc(-c2cccnc2)n1` [IMATINIB] was tested. Which IC50 (HCT-116 [1]) did it give?
**A.** 44.6 µM

**Q.** And the IC50 (HCT-116 [2])?
**A.** 51.2 µM

Source: ChEMBL document CHEMBL4411283, “The p53 stabilizing agent CP-31398 and multi-kinase inhibitors. Designing, synthesizing and screening of styrylquinazoline series” (Eur J Med Chem, 2019)
